Values quoted from earlier work as cited in US20160193231A1, “RETT SYNDROME AND TREATMENTS THEREFORE” (RETT SYNDROME RESEARCH TRUST, priority 2013, published 2016).

How the values were obtained:
[1] = tested on: synthesis in rat microsomes; conditions: cited from earlier work
[2] = (mouse/rat); cited from earlier work
cytochrome p450 enzymes = conditions: cited from earlier work

For CC(C)c1c(C(=O)Nc2ccccc2)c(-c2ccccc2)c(-c2ccc(F)cc2)n1CC[C@@H](O)C[C@@H](O)CC(=O)O [atorvastatin], the IC50 [1] is given as ~6 nM, the “LD50 (oral):” value [2] is given as >5000 mg/kg and the “Metabolized by:” value (cytochrome p450 enzymes) is given as “Cyp3A4”.
